{
  "source": "patent US20090221538A1",
  "about": "“METHODS OF TREATING MULTIPLE SCLEROSIS BY ADMINISTERING PULSE DOSE CALCITRIOL” (priority 2008, published 2009)",
  "origin": "cited, not measured here",
  "tested_on": "mice with EAE",
  "conditions": "daily oral 200 μg/d (0.5 μmol/d), relapse within 3-5 d of withdrawal; cited from earlier work",
  "note": "For at least one compound, name, drawing or mass did not settle the structure.",
  "data": [
    {"compound": "C[C@H]1C[C@@H]2[C@H]([C@@H](O)C[C@@]3(C)[C@H]2CC[C@]3(O)C(=O)CO)[C@@]2(C)C=CC(=O)C=C12", "note": "[Methyl-prednisolone]", "values": [
      {"measurement": "mice relapsed when the drug was withdrawn", "value": 100, "unit": "%"}
    ]}
  ]
}
